The supplement of paper PMC6411743
± gives the standard deviation of the averaged measurements. The entries are a selection whose mix differs from that of the whole data set.

Columns and labels:
Assay in all cases: NP40-soluble protein abundance relative to vehicle (solubility fold change) (ratio); higher = more soluble protein in presence of AMP-PNP
[1] = biological target: T1, I3L1Q3 and related entries (UniProt Q8TE02)
T1 sequence (whole entry): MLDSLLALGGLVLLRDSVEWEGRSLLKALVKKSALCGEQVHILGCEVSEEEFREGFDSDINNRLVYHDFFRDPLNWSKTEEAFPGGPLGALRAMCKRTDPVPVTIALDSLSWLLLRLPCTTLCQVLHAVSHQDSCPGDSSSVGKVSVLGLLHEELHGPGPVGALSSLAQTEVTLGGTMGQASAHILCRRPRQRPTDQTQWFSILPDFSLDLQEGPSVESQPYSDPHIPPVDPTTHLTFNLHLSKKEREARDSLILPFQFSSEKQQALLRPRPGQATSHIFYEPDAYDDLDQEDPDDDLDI
Summary of the method: (§1)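 Data come from three independent experiments in which Dounce-homogenised Jurkat crude lysate was treated at eight concentrations from 0.1 to 10 mM. Treatment ran 10 min at room temperature and then 3 min at 37 °C, after which 0.8% NP40 and benzonase were added for 60 min at 4 °C before ultracentrifugation. The supernatant underwent TMT labelling and LC-MS/MS, and vsn-normalised intensities were expressed as fold change against the detergent-processed vehicle in each replicate.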

[2] = biological target: T2, I3L2N2 and related entries (UniProt O14641)
T2 sequence (whole entry): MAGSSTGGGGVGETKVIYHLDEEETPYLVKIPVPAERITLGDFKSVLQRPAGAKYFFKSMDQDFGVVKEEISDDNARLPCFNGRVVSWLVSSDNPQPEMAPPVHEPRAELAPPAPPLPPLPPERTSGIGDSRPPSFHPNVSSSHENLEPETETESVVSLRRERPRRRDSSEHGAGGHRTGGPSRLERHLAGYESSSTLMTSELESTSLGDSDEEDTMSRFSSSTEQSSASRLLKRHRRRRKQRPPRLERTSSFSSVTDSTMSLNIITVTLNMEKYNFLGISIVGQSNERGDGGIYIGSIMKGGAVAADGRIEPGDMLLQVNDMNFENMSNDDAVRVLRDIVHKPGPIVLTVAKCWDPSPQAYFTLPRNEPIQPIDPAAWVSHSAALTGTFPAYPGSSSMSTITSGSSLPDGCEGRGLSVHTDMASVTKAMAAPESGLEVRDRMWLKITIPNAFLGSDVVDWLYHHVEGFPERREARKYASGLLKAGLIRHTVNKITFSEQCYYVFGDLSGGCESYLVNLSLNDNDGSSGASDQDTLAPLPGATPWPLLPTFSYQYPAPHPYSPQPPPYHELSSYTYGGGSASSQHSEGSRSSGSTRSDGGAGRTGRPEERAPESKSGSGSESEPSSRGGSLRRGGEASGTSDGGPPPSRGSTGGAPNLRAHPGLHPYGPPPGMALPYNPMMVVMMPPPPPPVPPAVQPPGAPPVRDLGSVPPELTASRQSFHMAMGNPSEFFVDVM
Summary of the method: as §1

J3KNF4 = biological target: T3, J3KNF4 (UniProt O14618)
T3 sequence (whole entry): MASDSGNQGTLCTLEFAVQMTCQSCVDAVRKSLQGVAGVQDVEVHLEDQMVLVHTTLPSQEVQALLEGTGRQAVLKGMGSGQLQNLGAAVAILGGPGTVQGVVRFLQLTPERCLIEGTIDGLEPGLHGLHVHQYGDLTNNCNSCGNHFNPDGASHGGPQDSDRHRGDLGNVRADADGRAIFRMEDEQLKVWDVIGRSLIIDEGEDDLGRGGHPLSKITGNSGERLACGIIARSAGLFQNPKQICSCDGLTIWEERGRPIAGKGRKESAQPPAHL
Summary of the method: as §1

[3] = biological target: T4, J3KNG8 and related entries (UniProt Q8TF40)
T4 sequence (whole entry): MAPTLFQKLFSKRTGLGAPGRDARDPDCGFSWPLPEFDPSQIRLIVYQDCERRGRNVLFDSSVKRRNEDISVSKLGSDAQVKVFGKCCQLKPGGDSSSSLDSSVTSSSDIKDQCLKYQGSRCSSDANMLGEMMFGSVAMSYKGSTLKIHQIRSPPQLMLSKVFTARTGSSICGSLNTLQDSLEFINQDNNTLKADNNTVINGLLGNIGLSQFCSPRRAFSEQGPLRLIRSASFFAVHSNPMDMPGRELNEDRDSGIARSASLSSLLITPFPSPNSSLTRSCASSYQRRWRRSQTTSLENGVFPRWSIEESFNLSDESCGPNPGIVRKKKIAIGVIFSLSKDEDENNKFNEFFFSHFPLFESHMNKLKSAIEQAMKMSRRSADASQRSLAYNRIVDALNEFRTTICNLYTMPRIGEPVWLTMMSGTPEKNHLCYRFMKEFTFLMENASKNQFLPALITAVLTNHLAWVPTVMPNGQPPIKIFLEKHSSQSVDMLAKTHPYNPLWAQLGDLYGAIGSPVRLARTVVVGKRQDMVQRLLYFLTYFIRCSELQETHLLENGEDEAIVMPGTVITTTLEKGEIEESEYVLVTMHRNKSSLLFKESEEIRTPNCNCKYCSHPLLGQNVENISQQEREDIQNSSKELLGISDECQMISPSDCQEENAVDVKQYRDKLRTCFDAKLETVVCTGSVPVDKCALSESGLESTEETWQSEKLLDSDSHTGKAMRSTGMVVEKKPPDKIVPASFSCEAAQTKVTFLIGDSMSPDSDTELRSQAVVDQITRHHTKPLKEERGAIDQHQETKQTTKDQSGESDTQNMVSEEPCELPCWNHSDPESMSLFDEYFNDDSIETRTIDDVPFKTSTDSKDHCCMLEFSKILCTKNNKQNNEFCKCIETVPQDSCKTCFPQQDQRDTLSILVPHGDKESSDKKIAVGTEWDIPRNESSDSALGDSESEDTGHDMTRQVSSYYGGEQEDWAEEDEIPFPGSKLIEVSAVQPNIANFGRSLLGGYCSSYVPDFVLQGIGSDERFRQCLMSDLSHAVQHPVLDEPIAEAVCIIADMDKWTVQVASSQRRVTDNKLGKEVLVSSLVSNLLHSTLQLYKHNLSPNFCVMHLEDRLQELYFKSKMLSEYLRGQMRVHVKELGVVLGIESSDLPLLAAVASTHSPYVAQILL
Summary of the method: as §1

[4] = biological target: T5, J3KPD3 and related entries (UniProt Q9Y580)
T5 sequence (whole entry): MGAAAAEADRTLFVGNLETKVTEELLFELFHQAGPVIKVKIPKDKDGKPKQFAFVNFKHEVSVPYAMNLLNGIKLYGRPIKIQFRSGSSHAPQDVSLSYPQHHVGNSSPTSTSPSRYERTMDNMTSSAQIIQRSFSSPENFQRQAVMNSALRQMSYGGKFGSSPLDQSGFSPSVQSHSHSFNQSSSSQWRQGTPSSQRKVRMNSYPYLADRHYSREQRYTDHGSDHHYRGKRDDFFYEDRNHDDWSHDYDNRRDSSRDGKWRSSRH
Summary of the method: as §1

Nc1ncnc2c1ncn2[C@@H]1O[C@H](COP(=O)(O)OP(=O)(O)NP(=O)(O)O)[C@@H](O)[C@H]1O [adenylyl imidodiphosphate]
NP40-soluble protein abundance ([1]; concentration: 6mM): 0.956 ± 0.037 | NP40-soluble protein abundance ([1]; concentration: 8mM): 0.967 ± 0.065 | NP40-soluble protein abundance ([1]; concentration: 10mM): 0.96 ± 0.038 | NP40-soluble protein abundance ([2]; concentration: 1mM): 1.01 ± 0.03 | NP40-soluble protein abundance ([2]; concentration: 2mM): 1.03 ± 0.013 | NP40-soluble protein abundance ([2]; concentration: 4mM): 0.99 ± 0.018 | NP40-soluble protein abundance ([2]; concentration: 6mM): 0.961 ± 0.051 | NP40-soluble protein abundance ([2]; concentration: 8mM): 0.922 ± 0.027 | NP40-soluble protein abundance ([2]; concentration: 10mM): 0.948 ± 0.041 | NP40-soluble protein abundance (J3KNF4; concentration: 1mM): 1.03 ± 0.026 | NP40-soluble protein abundance (J3KNF4; concentration: 2mM): 1.04 ± 0.031 | NP40-soluble protein abundance (J3KNF4; concentration: 4mM): 0.997 ± 0.064 | NP40-soluble protein abundance (J3KNF4; concentration: 6mM): 0.973 ± 0.027 | NP40-soluble protein abundance (J3KNF4; concentration: 8mM): 0.949 ± 0.027 | NP40-soluble protein abundance (J3KNF4; concentration: 10mM): 0.954 ± 0.082 | NP40-soluble protein abundance ([3]; concentration: 1mM): 0.976 ± 0.036 | NP40-soluble protein abundance ([3]; concentration: 2mM): 0.989 ± 0.027 | NP40-soluble protein abundance ([3]; concentration: 4mM): 0.978 ± 0.014 | NP40-soluble protein abundance ([3]; concentration: 6mM): 0.967 ± 0.043 | NP40-soluble protein abundance ([3]; concentration: 8mM): 0.9777 ± 0.0046 | NP40-soluble protein abundance ([3]; concentration: 10mM): 0.976 ± 0.022 | NP40-soluble protein abundance ([4]; concentration: 1mM): 0.97 ± 0.069 | NP40-soluble protein abundance ([4]; concentration: 2mM): 0.99 ± 0.029 | NP40-soluble protein abundance ([4]; concentration: 4mM): 0.973 ± 0.051 | NP40-soluble protein abundance ([4]; concentration: 6mM): 0.989 ± 0.077
